PubChem BioAssay AID1259308 | NCATS, 2017
In all, the deposit lists about 59,000 reagents; below is a random part of them. About 1,510 of all reagents (2.6%) count as active. 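Calls use total luciferase alone and ignore viability, so some active siRNAs may act by altering cell number.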

- Assay: 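Genes whose loss raises luciferase production in HEK293 cells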 (primary screen)
- System: human HEK293 embryonic kidney cells stably expressing firefly luciferase (HEK-CMV-Luc2-Hygro)
- Reagent: single siRNA against human genes, 0.8 pmol siRNA per well
- Timing: 72 h
- Read-out: 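Reporter luminescence and viable-cell signal on separate replicate plates, given as percent of non-targeting control and median/MAD z-scores, plus per-cell luciferase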
- Direction: total luciferase, z-score and total luciferase, % of control: higher = more reporter protein produced; luciferase per cell, z-score: higher = more reporter output per viable cell; viable cells, % of control: higher = more viable cells
- Rule for the call: 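An siRNA counts as active if its total luciferase robust z-score exceeds 3; genes with two or more such siRNAs out of three were retested with fresh siRNAs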
- Meaning of the calls: active = raised luciferase; inactive = no rise

gene | PubChem SID | total luciferase, z-score | total luciferase, % of control | luciferase per cell, z-score | viable cells, % of control | activity call
TSPAN12 | SID160736551 | -1.67 | 48.6 | -1.46 | 79.7 | inactive
TSPAN12 | SID160736552 | 0.176 | 85.4 | -0.00328 | 95.5 | inactive
TSPAN12 | SID160736553 | -0.18 | 78.3 | -0.152 | 91.1 | inactive
EDF1 | SID160720665 | 1.4 | 110 | 1.37 | 85.5 | inactive
EDF1 | SID160720667 | 0.0148 | 82.2 | 0.0168 | 91.4 | inactive
EDF1 | SID160732090 | -0.631 | 69.3 | -1.08 | 103 | inactive
F2RL1 | SID160730776 | 1.97 | 121 | 1.47 | 91.9 | inactive
F2RL1 | SID160762924 | 0.475 | 91.3 | 0.0935 | 99.6 | inactive
F2RL1 | SID160762935 | 0.282 | 87.5 | -0.275 | 105 | inactive
AQP11 | SID160762720 | -1.92 | 43.7 | -1.58 | 74.1 | inactive
AQP11 | SID160762721 | -1.47 | 52.7 | -0.302 | 63.7 | inactive
AQP11 | SID160762722 | -1.72 | 47.7 | -1.18 | 72.7 | inactive
MS4A13 | SID160768294 | -1.16 | 58.9 | -1.09 | 87.8 | inactive
MS4A13 | SID160768295 | 1.47 | 111 | 0.75 | 102 | inactive
MS4A13 | SID160768297 | 0.0187 | 82.3 | 0.544 | 79.7 | inactive
FGFR1OP2 | SID160737663 | 0.96 | 101 | 0.856 | 90.1 | inactive
FGFR1OP2 | SID160737664 | 0.995 | 102 | 0.259 | 106 | inactive
FGFR1OP2 | SID160737665 | -1.67 | 48.6 | -0.443 | 61 | inactive
CCDC92 | SID160734983 | -0.644 | 69.1 | -0.891 | 97.6 | inactive
CCDC92 | SID160750220 | -0.0597 | 80.7 | 0.383 | 81.5 | inactive
CCDC92 | SID160750221 | -1.4 | 54.1 | 0.157 | 58 | inactive
C7orf33 | SID160761078 | 1.11 | 104 | 0.619 | 98.6 | inactive
C7orf33 | SID160761079 | 0.84 | 98.6 | 0.924 | 86.4 | inactive
C7orf33 | SID160761080 | 0.505 | 91.9 | -0.17 | 107 | inactive
VAMP1 | SID160717574 | 0.849 | 98.8 | 0.455 | 97.9 | inactive
VAMP1 | SID160717575 | -0.327 | 75.4 | -0.309 | 91.4 | inactive
VAMP1 | SID160717576 | -0.0482 | 80.9 | -0.127 | 93.5 | inactive
SCEL | SID160720821 | -0.676 | 68.4 | -0.616 | 89.9 | inactive
SCEL | SID160720823 | -1.18 | 58.3 | 0.199 | 61.9 | inactive
SCEL | SID160720824 | 0.0393 | 82.7 | -0.926 | 118 | inactive
ABCG4 | SID160747520 | 0.668 | 95.2 | 0.544 | 92.2 | inactive
ABCG4 | SID160747521 | -0.3 | 75.9 | 1.17 | 62.4 | inactive
ABCG4 | SID160747522 | 1.38 | 109 | 0.503 | 107 | inactive
DPH3 | SID160763597 | -0.0977 | 79.9 | -0.551 | 103 | inactive
DPH3 | SID160763598 | 3.13 | 144 | 2.57 | 81.8 | active
DPH3 | SID160763599 | -0.432 | 73.3 | -0.17 | 85.7 | inactive
BCKDHB | SID160723314 | -1.04 | 61.1 | -1.6 | 104 | inactive
BCKDHB | SID160723325 | -0.0984 | 79.9 | 0.333 | 81.8 | inactive
BCKDHB | SID160723336 | -1 | 62 | 0.322 | 63.6 | inactive
CNTNAP4 | SID160753298 | -1.72 | 47.6 | -1.49 | 78.7 | inactive
CNTNAP4 | SID160753300 | -0.841 | 65.2 | 0.238 | 68.4 | inactive
CNTNAP4 | SID160753301 | 1.24 | 106 | 1.26 | 85.4 | inactive
DRC5 | SID160761072 | -0.191 | 78.1 | -0.589 | 102 | inactive
DRC5 | SID160761074 | -2.27 | 36.8 | -1.95 | 68.7 | inactive
DRC5 | SID160761075 | 0.52 | 92.2 | 0.257 | 96.3 | inactive
TMEM139 | SID160757434 | -0.000877 | 81.9 | 0.256 | 85.5 | inactive
TMEM139 | SID160757435 | -1.32 | 55.7 | -1.17 | 84.7 | inactive
TMEM139 | SID160757436 | -0.521 | 71.5 | 0.0599 | 78.7 | inactive
TFRC | SID160775656 | 0.442 | 90.7 | 1.28 | 72.3 | inactive
TFRC | SID160775666 | -0.501 | 71.9 | -0.479 | 91.2 | inactive
TFRC | SID160775675 | -0.91 | 63.8 | -1.19 | 97.4 | inactive
ZNF71 | SID160746835 | 2.35 | 129 | 2.04 | 84 | inactive
ZNF71 | SID160746836 | -1.45 | 53 | -1.35 | 84.3 | inactive
ZNF71 | SID160746837 | -0.221 | 77.5 | -0.0353 | 87.4 | inactive
TXNDC12 | SID160739943 | 0.183 | 85.5 | -0.228 | 101 | inactive
TXNDC12 | SID160739944 | -0.237 | 77.2 | 0.316 | 79.3 | inactive
TXNDC12 | SID160739945 | -0.0725 | 80.4 | 0.116 | 87.2 | inactive
